Test results reported in US20020117175A1, “Thermal vaporizing device for drug delivery” (priority 2000, published 2002).

Columns and labels:
Format in all cases: physicochemical
[1] = TVD device simulation experiment, cold finger as Δ^9-THC trap (desorption from α-alumina particles, GC analysis); details: for Accounted For in Sample By GC Analysis: sample: spent α-alumina particles; for Accounted For in Sample By GC Analysis / Δ^9-THC Accounted For in Sample By GC Analysis: 5.00 mg starting content
[2] = Thermo-gravimetric analysis (TGA) desorption experiment
[3] = Loading of Δ^9-THC onto α-alumina particles: loading amount and distribution by GC; details: α-alumina particles (100 mesh), loaded from ethanolic solution

| SMILES | Accounted For in Sample By GC Analysis [1] | Material Balance (percent) ([1]; cold finger trap, relative to 5.00 mg starting content) | Δ^9-THC Accounted For in Sample By GC Analysis ([1]; sample: cloth filter-bottom) | Δ^9-THC Accounted For in Sample By GC Analysis ([1]; sample: cloth filter-top) | Δ^9-THC Accounted For in Sample By GC Analysis ([1]; sample: cold finger, about 350-400° C. for about 15 min) | Δ^9-THC Accounted For in Sample By GC Analysis ([1]; sample: glass tube) | Material Balance (percent) ([2]; TGA experiment, relative to 3.25 mg starting content) | Δ^9-THC Accounted For in Sample By GC Analysis ([2]; sample: condensate collected on the lid of the TGA sample chamber, 3.25 mg starting content, 350° C. for 10 minutes) | Δ^9-THC loading amount [3] |
| --- | --- | --- | --- | --- | --- | --- | --- | --- | --- |
| CCCCCc1cc(O)c2c(c1)OC(C)(C)c1ccc(C)cc1-2 [Cannabinol, cannabinol] | 3.92 μg: Cannabinol | – | – | – | – | – | – | – | – |
| CCCCCc1cc(O)c2c(c1)OC(C)(C)[C@@H]1CCC(C)=C[C@@H]21 [Δ^9-THC, delta-9-tetrahydrocannabinol] | 84.21 μg: Δ^9-THC | (92.9%) | 0 μg: Δ^9-THC | 157.30 μg: Δ^9-THC | 0 μg: Δ^9-THC | 112.15 μg: Δ^9-THC | (92.3%) | 254.94 µg | 0.85 mg per 100 mg α-Alumina |
